The target in experiment [1] is T1, soluble MICB in culture supernatant of TC2-sMICB cells (human) (UniProt Q29980).
T1 sequence: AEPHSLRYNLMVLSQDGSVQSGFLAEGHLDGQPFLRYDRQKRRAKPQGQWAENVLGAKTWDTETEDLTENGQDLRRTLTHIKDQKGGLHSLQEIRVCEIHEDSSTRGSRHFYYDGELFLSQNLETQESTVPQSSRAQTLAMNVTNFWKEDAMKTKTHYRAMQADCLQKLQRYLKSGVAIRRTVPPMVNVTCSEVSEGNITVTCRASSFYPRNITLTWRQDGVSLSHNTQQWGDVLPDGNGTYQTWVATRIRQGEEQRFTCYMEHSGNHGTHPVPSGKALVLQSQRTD
Briefly: immunoprecipitation from TC2-sMICB culture supernatant with protein A-beads, immunoblot with goat anti-MICB AF1599. In general terms: In western blotting, separated proteins are transferred to a membrane and probed.

The target in experiment [2] is T2, biotinylated recombinant soluble MICB (human) (UniProt Q29980).
T2 sequence (chain, biotinylated): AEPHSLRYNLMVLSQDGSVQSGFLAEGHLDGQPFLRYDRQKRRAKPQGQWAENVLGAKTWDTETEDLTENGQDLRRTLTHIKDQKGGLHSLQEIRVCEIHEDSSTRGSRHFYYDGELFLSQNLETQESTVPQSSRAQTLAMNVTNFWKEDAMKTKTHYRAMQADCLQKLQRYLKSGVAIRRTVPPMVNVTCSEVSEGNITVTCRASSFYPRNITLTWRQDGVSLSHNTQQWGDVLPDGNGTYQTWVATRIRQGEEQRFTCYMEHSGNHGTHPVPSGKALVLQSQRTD
Briefly: flow cytometry competition: biotinylated rsMICB on mouse NK cells with various concentrations of p2B10G5. Background: In flow cytometry, cells or beads pass a laser one at a time.

Results are given in words; binding and its absence hold for the method and conditions named. Some binding calls cover weakened binding; strength is not graded here.

B1: monoclonal antibody P2B10G5 (antibody, V domains shown)
VH: EVQLEESGPGLVKPSQSLSLTCTVTGYSITSDYAWNWIRQFPGNKLEWMGYISYSGSTNYNPSLKSRISITRDTSKNQFFLQLNSVITEDTATYYCARGGTYFDYWGQGTTLTVSS
VL: DIVLTQTTSYLSVSLGGRVTIACKASAHINNWLAWYQQKPGNAPRLLISDATSLETGVPSRFSGSGSGKDYTLSITSLQTEDVATYYCQHYWSTPWTFGGGTKLEIKR
notes: Mouse hybridoma antibody, IgG1 kappa, raised against recombinant soluble MIC; also called mAb B10G5; anti-sMIC
For B1, the binding result in experiment [1] and in experiment [2] was “binds” throughout.
